Laboratory results as given in PMC2249700.
No constants are given. Whether binding was seen depends on the method and setting. Binding seen in cells or lysates may run through a third protein. Some entries that bind do so weakly or less than the wild type. Tags and fused reporters may be left off the sequences shown.

Biological target: T1, SKAP-55, transfected (UniProt Q86WV1)
T1 sequence: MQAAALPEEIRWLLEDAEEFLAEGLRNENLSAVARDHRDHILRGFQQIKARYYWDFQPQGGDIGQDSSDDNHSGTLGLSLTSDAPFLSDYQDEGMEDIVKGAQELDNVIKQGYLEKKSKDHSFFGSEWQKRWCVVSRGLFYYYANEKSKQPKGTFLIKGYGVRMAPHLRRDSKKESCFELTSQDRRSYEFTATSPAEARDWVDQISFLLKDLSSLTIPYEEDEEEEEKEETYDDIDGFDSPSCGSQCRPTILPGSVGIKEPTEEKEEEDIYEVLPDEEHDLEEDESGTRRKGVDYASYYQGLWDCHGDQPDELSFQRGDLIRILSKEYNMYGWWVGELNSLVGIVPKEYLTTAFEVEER
Experiment: co-IP; Jurkat cells transfected with myc-RasGRP1 plus SKAP-55 or SKAP-55ΔSH3; anti-SKAP-55 precipitates blotted for RasGRP1

B1: myc-RasGRP1 (protein, UniProt O95267 1-797)
chain: MGTLGKAREAPRKPSHGCRAASKARLEAKPANSPFPSHPSLAHITQFRMMVSLGHLAKGASLDDLIDSCIQSFDADGNLCRSNQLLQVMLTMHRIVISSAELLQKVITLYKDALAKNSPGLCLKICYFVRYWITEFWVMFKMDASLTDTMEEFQELVKAKGEELHCRLIDTTQINARDWSRKLTQRIKSNTSKKRKVSLLFDHLEPEELSEHLTYLEFKSFRRISFSDYQNYLVNSCVKENPTMERSIALCNGISQWVQLMVLSRPTPQLRAEVFIKFIQVAQKLHQLQNFNTLMAVIGGLCHSSISRLKETSSHVPHEINKVLGEMTELLSSSRNYDNYRRAYGECTDFKIPILGVHLKDLISLYEAMPDYLEDGKVNVHKLLALYNHISELVQLQEVAPPLEANKDLVHLLTLSLDLYYTEDEIYELSYAREPRNHRAPPLTPSKPPVVVDWASGVSPKPDPKTISKHVQRMVDSVFKNYDHDQDGYISQEEFEKIAASFPFSFCVMDKDREGLISRDEITAYFMRASSIYSKLGLGFPHNFQETTYLKPTFCDNCAGFLWGVIKQGYRCKDCGMNCHKQCKDLVVFECKKRAKNPVAPTENNTSVGPVSNLCSLGAKDLLHAPEEGPFTFPNGEAVEHGEESKDRTIMLMGVSSQKISLRLKRAVAHKATQTESQPWIGSEGPSGPFVLSSPRKTAQDTLYVLPSPTSPCPSPVLVRKRAFVKWENKDSLIKSKEELRHLRLPTYQELEQEINTLKADNDALKIQLKYAQKKIESLQLEKSNHVLAQMEQGDCS
binding: binds
